From paper doi:10.1101/2024.02.16.580734
These are yes or no findings as the source states them, for the method shown. Some entries that bind do so weakly or less than the wild type. Sequences can lack the tags named with a protein.

Molecular target: TIR-1::3xFLAG (C. elegans TIR-1/SARM1 tagged from its endogenous locus with a 3xFLAG sequence) (C. elegans) (UniProt Q86DA5)
Assay: native gel or EMSA

binding: binds
B1: TIR-1::3xFLAG (C. elegans TIR-1/SARM1 tagged from its endogenous locus with a 3xFLAG sequence) (protein, UniProt Q86DA5 1-981)
chain: MLPNRKPPRPSPSFQSLNNNNQRFPLRRSLKIAQAHSLPTVPSEDAKDDDLITPELSTDFDFREIQHRYLMALQNEQDGETTSTDDAFFELDDDDDLSSPSVPGSPVDPPSISVPLPPKSAPPCPTQPAPLTNGDLYPTILSNGTPIPNGRITPALSTVSVSLIHEARLQQSLSTPCNGSEEEMHNGQVRKESEYRRFKSEGSTAGASLPAAEKTHMDELSPVDQRSTSGTARFLIQQDSVVNPSTKMSNTEQVAMMHTLKTKLSKYQAMMDKAFEEIAKVEDANIIEGCTIVRKLMRKVWNTPKVSADLANALCDYLRDRDYFDKLIKMFISPNTAACDQVRMECGKVLEECTSSANLEYIVNKSYTKKIMIVAMKLNKTPDQQRLSLSLIGNLFKHSNAVSLSLIETDVIDHIILTFKRAPECPDILRHAALALANILLYTCFEGKKKIIQKKIPEWLFFLASQADDVTRYYACIAVCTIVSVKEFEPLVRKSDTMKLVEPFLQVHDPATFARDYHKYAQGNTKEWLERLLPMLQPSRRREARSVAAFHFTLEATIKKEQNKLDVFQEIGAIQALKEVASSPDEVAAKFASEALTVIGEEVPYKLAQQVPGWTCADVQYWVKKIGFEEYVEKFAKQMVDGDLLLQLTENDLKHDVGMISGLHRKRFLRELQTLKVAADYSSVDESNLDNFLMGLSPELSVYTYQMLTNGVNRSLLSSLTDEMMQNACGITNPIHRLKLTQAFETAKHPDDVEVAMLSKQIDVFISYRRSTGNQLASLIKVLLQLRGYRVFIDVDKLYAGKFDSSLLKNIQAAKHFILVLTPNSLDRLLNDDNCEDWVHKELKCAFEHQKNIIPIFDTAFEFPTKEDQIPNDIRMITKYNGVKWVHDYQDACMAKVVRFITGELNRTTPTTKEMPSISRKTTQQRWQTTNTVSRTGPSRSIGGPRMEPPTPTFTPTGSQERATSTRRKIQPSASTTSDRN
